Laboratory results taken from PubChem BioAssay AID330 (DTP/NCI, 2004).
The list shows only some results of the screen, not a fair sample: it is rich in T/C values a quarter to a half above the control, in often repeated tests (any T/C) and in doses without a T/C. Further doses and runs are listed elsewhere. T/C gives the treated animals as a percentage of the vehicle group. Some doses have a count of surviving animals in place of a T/C: the source files T/C as zero there, which appears to mark a toxic dose or a test without result, not a measured value. Some survivor counts are full or nearly so, which does not show that the dose was tolerated: the source hardly ever lists a survival T/C far under the control, and the zero likely stands for such cases as well. Counts of survivors are from the toxicity check (mostly the fifth day) where no day follows; animals may have died later. Schedules are NCI's codes, taken here to give the interval after Q, in days (D) or hours (H), and the number of doses after X. Where survival is the endpoint, this PubChem deposit counts one and a half times the control or more as active, and values a quarter to a half above the control carry no call in these data; other NCI protocols may use other cut-offs. Some T/C values carry the count of animals alive at the toxicity check (mostly the fifth day); without a count, all were alive then. Some doses were run more than once; the values are given in rising order.

Tested on: P388 leukemia ip, CD2F1 mice, survival T/C
Assay: NCI In Vivo Anticancer Drug Screen. Data for tumor model P388 Leukemia (intraperitoneal) in CD2F1 (CDF1) mice
Conditions: T/C endpoint: median survival time, higher T/C = longer survival
[1] = dose: 100.0 mg/kg/injection, schedule: Q01DX005 (ip), vehicle: saline with Tween-80
[2] = dose: 200.0 mg/kg/injection, schedule: Q01DX005 (ip), vehicle: saline with Tween-80
[3] = dose: 15.0 mg/kg/injection, schedule: Q01DX005 (ip), vehicle: saline
[4] = dose: 240.0 mg/kg/injection, schedule: Q01DX005 (ip), vehicle: saline
[5] = dose: 100.0 mg/kg/injection, schedule: Q04DX003 (ip), vehicle: saline with Tween-80
[6] = dose: 25.0 mg/kg/injection, schedule: Q01DX009 (ip), vehicle: saline with Tween-80
[7] = dose: 50.0 mg/kg/injection, schedule: Q01DX009 (ip), vehicle: saline with Tween-80
[8] = dose: 240.0 mg/kg/injection, schedule: Q01DX005 (ip), vehicle: Klucel (hydroxypropylcellulose) (HPC)
[9] = dose: 100.0 mg/kg/injection, schedule: Q01DX009 (ip), vehicle: saline with Tween-80
[10] = dose: 200.0 mg/kg/injection, schedule: Q01DX009 (ip), vehicle: saline with Tween-80
[11] = dose: 240.0 mg/kg/injection, schedule: Q01DX005 (ip), vehicle: saline with Tween-80

CCCCCCCC1C(=O)OC2CC3C(C)=CC(=O)C(O)C3(C)C3C4(O)OCC23C1C(C)C4O (stereo not drawn)
T/C (dose: 20.0 mg/kg/injection, schedule: Q01DX005 (ip), vehicle: Klucel (hydroxypropylcellulose) (HPC)): 130 and 135 % of control [4 of 6 alive]
survivor count (dose: 40.0 mg/kg/injection, schedule: Q01DX005 (ip), vehicle: Klucel (hydroxypropylcellulose) (HPC)): 0 of 6

CCOc1ccc2c(c1)c(C)cc(C)[n+]2CC
survivor count (dose: 25.0 mg/kg/injection, schedule: Q04DX003 (ip), vehicle: saline with Tween-80): 0 of 6

COc1ccc2c(c1O)C13CC=NC(C2)C1C(C)(C)C(C)(C)C(=O)C3 (stereo not drawn)
survivor count [1]: 5 of 5
survivor count [2]: 0 of 5

C[CH2][Sn]([CH2]C)([S]CCS(=O)(=O)O)[S]CCS(=O)(=O)O (tested in a mixture with another compound)
T/C (dose: 1.87 mg/kg/injection, schedule: Q01DX005 (ip), vehicle: saline): 130 % of control
T/C (dose: 3.75 mg/kg/injection, schedule: Q01DX005 (ip), vehicle: saline): 130 and 133 % of control
T/C (dose: 7.5 mg/kg/injection, schedule: Q01DX005 (ip), vehicle: saline): 125 % of control
T/C [3]: 131 % of control
survivor count [3]: 3 of 6
survivor count (dose: 60.0 mg/kg/injection, schedule: Q01DX005 (ip), vehicle: saline): 0 of 6
survivor count (dose: 120.0 mg/kg/injection, schedule: Q01DX005 (ip), vehicle: saline): 0 of 6
survivor count [4]: 0 of 6

CCN(CC)C(=O)CC(c1ccccc1)N(C)C (stereo not drawn)
survivor count [4]: 1 of 6

C=C1C(=O)OC2C1CC/C(C)=C/CCC1(C)OC21 (stereo not drawn)
T/C (dose: 35.0 mg/kg/injection, schedule: Q01DX009 (ip), vehicle: Klucel (hydroxypropylcellulose) (HPC)): 136 % of control

CN(C)CCCOc1nc2c(c(=O)n(C)c(=O)n2C)n1C (tested in a mixture with another compound)
T/C (dose: 50.0 mg/kg/injection, schedule: Q01DX005 (ip), vehicle: Klucel (hydroxypropylcellulose) (HPC), evaluated on day 20): 128 % of control
T/C (dose: 50.0 mg/kg/injection, schedule: Q01DX005 (ip), vehicle: Klucel (hydroxypropylcellulose) (HPC), evaluated on day 30): 130 % of control
survivor count (dose: 100.0 mg/kg/injection, schedule: Q01DX005 (ip), vehicle: Klucel (hydroxypropylcellulose) (HPC)): 5 of 6
survivor count (dose: 200.0 mg/kg/injection, schedule: Q01DX005 (ip), vehicle: Klucel (hydroxypropylcellulose) (HPC)): 0 of 6

[Se]=P(c1ccccc1)(N1CC1)N1CC1
survivor count [5]: 1 of 6
survivor count (dose: 200.0 mg/kg/injection, schedule: Q04DX003 (ip), vehicle: saline with Tween-80): 0 of 6

OCC1OC(n2ccc3c(Cl)ncnc32)C(O)C1O (stereo not drawn)
survivor count (dose: 50.0 mg/kg/injection, schedule: Q01DX005 (ip), vehicle: suspension in saline): 6 of 6
survivor count (dose: 100.0 mg/kg/injection, schedule: Q01DX005 (ip), vehicle: suspension in saline): 2 of 6
survivor count (dose: 200.0 mg/kg/injection, schedule: Q01DX005 (ip), vehicle: suspension in saline): 0 of 6

Clc1n[nH]c(Cl)n1
survivor count [6]: 6 of 6
survivor count [7]: 4 of 6

CCOC(=O)c1c[nH]c2c(Cl)c(Cl)ccc2c1=O
survivor count (dose: 200.0 mg/kg/injection, schedule: Q01DX009 (ip), vehicle: Klucel (hydroxypropylcellulose) (HPC)): 6 of 6

COc1ccccc1NC(=S)N/N=C\c1cc(N=Nc2ccccc2)cc(OC)c1O
survivor count [2]: 2 of 6

CC(C)N=Cc1ccccc1O.CC(C)N=Cc1ccccc1O.[Cu]
survivor count [5]: 5 of 6

N=C(N)c1ccc(/C=C/c2ccc(C(=N)N)cc2O)cc1
T/C (dose: 33.0 mg/kg/injection, schedule: Q01DX009 (ip), vehicle: water): 129 % of control
T/C (dose: 50.0 mg/kg/injection, schedule: Q01DX009 (ip), vehicle: water): 130 [4 of 6 alive] and 137 % of control
T/C (dose: 75.0 mg/kg/injection, schedule: Q01DX009 (ip), vehicle: water): 132 % of control
survivor count (dose: 100.0 mg/kg/injection, schedule: Q01DX009 (ip), vehicle: water): 3 of 6
survivor count (dose: 200.0 mg/kg/injection, schedule: Q01DX009 (ip), vehicle: water): 0 of 6

CCC/C=C(/C=N/Nc1ccc([N+](=O)[O-])cc1[N+](=O)[O-])CC
survivor count [1]: 5 of 5
survivor count [2]: 5 of 5

O=C(CCCC(=O)Nc1ccc2[nH]c3ccccc3c(=O)c2c1)Nc1ccc2[nH]c3ccccc3c(=O)c2c1
survivor count [8]: 6 of 6

ClCCN(CCCl)c1ccc(N=Nc2cccc(Cl)c2Cl)cc1
T/C (dose: 75.0 mg/kg/injection, schedule: Q04DX003 (ip), vehicle: Klucel (hydroxypropylcellulose) (HPC)): 125 % of control

CCN(CC)C(=S)N/N=C(\C)c1ccccn1
survivor count [6]: 6 of 6
survivor count [7]: 4 of 6
survivor count [9]: 3 of 6
survivor count [10]: 0 of 6

COc1cc([N+](=O)[O-])cc2c1OC1(C=C2)Oc2ccccc2N1C (stereo not drawn)
survivor count (dose: 60.0 mg/kg/injection, schedule: Q01DX005 (ip), vehicle: Klucel (hydroxypropylcellulose) (HPC)): 1 of 6
survivor count [8]: 5 of 6

Clc1nnc(Cl)c(Cl)c1Cl
survivor count (dose: 0.4 mg/kg/injection, schedule: Q01DX009 (ip), vehicle: saline with Tween-80): 6 of 6
survivor count (dose: 0.75 mg/kg/injection, schedule: Q04DX003 (ip), vehicle: saline with Tween-80): 5 of 6
survivor count (dose: 1.5 mg/kg/injection, schedule: Q04DX003 (ip), vehicle: saline with Tween-80): 1 of 6

N#Cc1c(C(=O)NOCCCc2ccccc2)cc(-c2ccc(F)cc2)[nH]c1=O
survivor count [11]: 3 of 6

C=CCc1ccccc1C1=[N+](C)C(C)(C)CO1
survivor count (dose: 100.0 mg/kg/injection, schedule: Q04DX002 (ip), vehicle: saline with Tween-80): 6 of 6
survivor count (dose: 200.0 mg/kg/injection, schedule: Q04DX002 (ip), vehicle: saline with Tween-80): 1 of 6
survivor count (dose: 400.0 mg/kg/injection, schedule: Q04DX002 (ip), vehicle: saline with Tween-80): 0 of 6

C=C[CH2][Sn]([CH3])([CH3])[CH2]C=C
survivor count (dose: 200.0 mg/kg/injection, schedule: Q01DX005 (ip), vehicle: saline): 0 of 6

Cc1cc(O)c2c(O)c(-c3ccc4cc(C)cc(O)c4c3O)ccc2c1
survivor count (dose: 200.0 mg/kg/injection, schedule: Q01DX009 (ip), vehicle: saline): 4 of 6

OC(COc1cccc(C(F)(F)F)c1)CN1CCN(c2ccc(F)cc2)CC1 (stereo not drawn)
survivor count (dose: 100.0 mg/kg/injection, schedule: Q01DX009 (ip), vehicle: distilled water + Tween-80): 2 of 6
T/C [9]: 135 % of control [4 of 6 alive]
survivor count (dose: 200.0 mg/kg/injection, schedule: Q01DX009 (ip), vehicle: distilled water + Tween-80): 0 of 6

Nc1nccc(CCc2ccccc2)n1
survivor count [11]: 6 of 6

CCN(CC)CCNc1ncnc(N)c1C(=C(C)C)c1ccc(Cl)cc1
survivor count [9]: 4 of 6
survivor count [10]: 4 of 6

CN=C(NC)c1ccc(NC(=O)c2ccc(C(=O)Nc3ccc(C(=NC)NC)c(C)c3)cc2)cc1C
T/C (dose: 12.5 mg/kg/injection, schedule: Q01DX005 (ip), vehicle: saline with Tween-80): 129 % of control
survivor count (dose: 50.0 mg/kg/injection, schedule: Q01DX005 (ip), vehicle: saline with Tween-80): 4 of 6
survivor count [1]: 0 of 6
survivor count [2]: 0 of 6
